Laboratory results published in patent publication US5194586A, “Anti-ATLA antibody binding peptides” (Kuraray Co., Ltd., priority 1989, dated 1993).
Several values for one entry are separate records, joined by “and”; a condition that tells them apart may be missing. Equal values may be shown once. Part of at least one peptide drawing is inferred or uncertain, most often the ends. Where a SMILES comes first, the peptide text is derived from it.

Experiments:
Type in all cases: binding, human
anti-ATLA antibody [1] = test: ELISA of Example 22; conditions: for Cutoff value: mean OD492 of the normal human serum + 2SD; for Mean OD492: mean of the ten normal human serums
anti-ATLA antibody [2] = test: ELISA of Example 23: single peptides and 1:10 mixture; conditions: for Cutoff value: mean OD492 of the normal human serum + 2SD; for Mean OD492: mean of the two normal human serums
anti-ATLA antibody [3] = test: ELISA of Example 21: peptide-coated assay cups used immediately or after storage
anti-ATLA antibody [4] = test: ELISA of Example 19: peptide-coated polystyrene cup, serum specimens, absorbance at 492 nm; conditions: for Cutoff value: mean OD492 of the normal human serum + 2SD; for Mean OD492: mean of the ten normal human serums
anti-ATLA antibody [5] = test: ELISA of Example 24: single peptides and 1:1 mixture, dried stored cups; conditions: for OD492: listed as Ex. 1
Protocol: Each serum specimen was assayed for the presence of the anti-ATLA antibody by the following ELISA in which an absorbance was measured.
The peptide prepared in Example 1 or the peptide prepared in Reference Example 9 were each dissolved in 0.01M carbonate buffer (pH 9.5) to prepare a solution containing each peptide. In addition, a solution containing both peptides was prepared by mixing the above two solutions at a concentration ratio of 1:1 (the former:the latter). Each 100 μl of the resulting peptide solutions was added to a cup for ELISA made of polystyrene (the same as mentioned above) and the mixture was allowed to stand at 4° C. overnight so that the peptide is coated on the cup. After removing the peptide solution in these cups, to each cup was added PBS (200 μl ) containing 20% by volume of normal goat serum and the mixture was allowed to stand at room temperature for 3 hours to block non-specific protein binding sites. After removing the blocking solution in the cups, the cups were dried and stored at 4° C.
Using PBS containing 10% by volume of normal goat serum and 0.05% by volume of Tween 20 as a diluent, the diluent and each serum specimen (15 specimens of the ATLV-carrier serum and 15 specimens of the normal human serum) was mixed at a ratio of 20:1 (diluent:specimen; v/v) and each 100 μl of the resulting diluted serums was added to above each assay cup. After incubation at 37° C. for 1 hour, the cups were washed with PBS containing 0.05% by volume of Tween 20 (×3) and then with PBS (×1).
To each resulting assay cup was added PBS containing horseradish peroxidase conjugated goat anti-human IgG antibody (diluted at an optimal concentration with PBS containing 10% by volume of normal goat serum and 0.2% by volume of Tween 20; 100 μl ). After incubation at 37° C. for 30 minutes, these cups were washed with PBS containing 0.05% by volume of Tween 20 (×3) and then with PBS (×1). […] After the mixtures were allowed to stand at room temperature for 15 minutes, to each mixture was added 1N sulfuric acid (100 μl) to stop the reaction and an absorbance at 492 nm (OD492) of each reaction solution was measured.
Cutoff value was determined using the OD492 values of the fifteen normal human serums and used for determination as to whether the specimens are positive or negative for the anti-ATLA antibody. The cutoff value was calculated by the equation: cutoff value = ((mean value of OD492 values of the normal human serum) +2SD). When the presence of the anti-ATLA antibody in each serum specimen was assayed using this cutoff value, all ATLV-carrier serums were determined to be positive and all normal human serums were determined to be negative.

anti-ATLA antibody [6] = test: ELISA of Example 20: optimal coating amount of the peptide; conditions: for peptide amount giving a maximum OD492 value / peptide amount giving the OD492 value with which the specimen can be determined to be positive: five positive ATLV-carrier serums No. 1 to No. 5; for determination from OD492 at any coated amount of the peptide: normal human serums No. 6 to No. 7, 0 to 320 μg/ml coating solution
[7] = ATLV-carrier serum, individual specimens No. 1-10
[8] = ATLV-carrier serum, individual specimens No. 11-20
[9] = all ATLV-carrier serums (20 specimens)
[10] = all normal human serums (10 specimens)
[11] = normal human serum, individual specimens No. 1-10

| SMILES | OD492 (anti-ATLA antibody [1]; [7]) | OD492 (anti-ATLA antibody [1]; [8]) | determination of anti-ATLA antibody using the cutoff value (anti-ATLA antibody [1]; [9]) | determination of anti-ATLA antibody using the cutoff value (anti-ATLA antibody [1]; [10]) | Cutoff value (anti-ATLA antibody [1]) | Mean OD492 (anti-ATLA antibody [1]) | OD492 (anti-ATLA antibody [1]; [11]) | Cutoff value (anti-ATLA antibody [2]) | Mean OD492 (anti-ATLA antibody [2]) | OD492 (anti-ATLA antibody [4]; [7]) | OD492 (anti-ATLA antibody [4]; [8]) | determination of anti-ATLA antibody using the cutoff value (anti-ATLA antibody [4]; [9]) | determination of anti-ATLA antibody using the cutoff value (anti-ATLA antibody [4]; [10]) | Cutoff value (anti-ATLA antibody [4]) | Mean OD492 (anti-ATLA antibody [4]) | OD492 (anti-ATLA antibody [4]; [11]) | peptide amount giving a maximum OD492 value (anti-ATLA antibody [6]) | peptide amount giving the OD492 value with which the specimen can be determined to be positive (anti-ATLA antibody [6]) | determination from OD492 at any coated amount of the peptide (anti-ATLA antibody [6]) | other results |
| --- | --- | --- | --- | --- | --- | --- | --- | --- | --- | --- | --- | --- | --- | --- | --- | --- | --- | --- | --- | --- |
| CC[C@H](C)[C@H](NC(=O)[C@H](Cc1c[nH]cn1)NC(=O)[C@H](CC(=O)O)NC(=O)[C@H](CC(C)C)NC(=O)[C@H](CC(N)=O)NC(=O)[C@H](CO)NC(=O)[C@H](Cc1c[nH]cn1)NC(=O)[C@@H]1CCCN1C(=O)[C@H](CC(C)C)NC(=O)[C@H](CC(C)C)NC(=O)[C@H](CCCCN)NC(=O)[C@@H](N)CCCCN)C(=O)N[C@@H](CC(C)C)C(=O)N[C@@H](CCC(=O)O)C(=O)N1CCC[C@H]1C(=O)N[C@@H](CO)C(=O)N[C@H](C(=O)N1CCC[C@H]1C(=O)N[C@@H](Cc1c[nH]c2ccccc12)C(=O)N[C@@H](CCCCN)C(=O)N[C@@H](CO)C(=O)N[C@@H](CCCCN)C(=O)O)[C@@H](C)CC [Example 16] (H-KKLLPHSNLDHILEPSIPWKSK-OH) | 2.187 and 2.545 and 2.536 and 2.365 and 2.714 and 2.669 and 2.263 and 2.121 and 2.376 and 2.458 | 2.581 and 2.564 and 2.664 and 2.346 and 2.593 and 2.555 and 2.323 and 2.492 and 2.537 and 2.641 | positive | negative | 0.195 | 0.141 | 0.153 and 0.126 and 0.172 and 0.148 and 0.154 and 0.168 and 0.111 and 0.108 and 0.100 | – | – | – | – | – | – | – | – | – | – | – | – | – |
| CC(C)C[C@H](NC(=O)CNC(=O)CNC(=O)[C@H](CCC(N)=O)NC(=O)[C@H](CCC(=O)O)NC(=O)[C@H](Cc1c[nH]c2ccccc12)NC(=O)[C@H](Cc1ccccc1)NC(=O)[C@H](CC(C)C)NC(=O)[C@H](CC(C)C)NC(=O)[C@H](CC(=O)O)NC(=O)[C@H](CC(C)C)NC(=O)CNC(=O)[C@H](CCCNC(=N)N)NC(=O)[C@H](CCCNC(=N)N)NC(=O)[C@H](CC(N)=O)NC(=O)[C@H](CCC(N)=O)NC(=O)[C@H](C)NC(=O)[C@H](C)NC(=O)[C@H](Cc1ccc(O)cc1)NC(=O)[C@H](CCCCN)NC(=O)[C@@H](N)CCCCN)C(=O)O [Example 15] (H-KKYAAQNRRGLDLLFWEQGGL-OH) | 2.549 and 2.598 and 2.356 and 2.442 and 2.670 and 2.626 and 2.354 and 2.444 and 2.521 and 2.241 | 2.335 and 2.583 and 2.591 and 2.435 and 2.568 and 2.123 and 2.397 and 2.687 and 2.488 and 2.626 | positive | negative | 0.182 | 0.134 | 0.167 and 0.187 and 0.228 and 0.159 and 0.169 and 0.110 and 0.119 and 0.057 and 0.093 and 0.124 | 0.060 | 0.052 | – | – | – | – | – | – | – | – | – | – | OD492 (anti-ATLA antibody [2]; ATLV-carrier serum, individual specimens No. 1-22, diluent:specimen 20:1, listed as Ex. 15): 0.811 and 0.635 and 0.205 and 0.325 and 0.182 and 0.183 and 1.060 and 1.042 and 0.202 and 0.100 and 2.175 and 0.522 and 2.760 and 0.101 and 1.078 and 0.510 and 0.611 and 0.194 and 2.755 and 1.107 and 0.206 and 1.505; OD492 (anti-ATLA antibody [2]; normal human serum, individual specimens No. 1-2, listed as Ex. 15): 0.055 and 0.049 |
| CC[C@H](C)[C@H](NC(=O)[C@H](CCC(N)=O)NC(=O)[C@@H]1CCCN1C(=O)[C@H](CC(=O)O)NC(=O)[C@H](CO)NC(=O)[C@H](CC(=O)O)NC(=O)[C@@H]1CCCN1C(=O)[C@@H]1CCCN1C(=O)[C@H](CC(=O)O)NC(=O)[C@H](Cc1c[nH]cn1)NC(=O)[C@@H](NC(=O)[C@@H]1CCCN1C(=O)[C@H](CO)NC(=O)[C@H](CO)NC(=O)[C@@H]1CCCN1C(=O)[C@@H]1CCCN1C(=O)[C@@H]1CCCN1C(=O)[C@@H]1CCCN1C(=O)[C@H](CCCCN)NC(=O)[C@@H](N)CCCCN)[C@@H](C)O)C(=O)N1CCC[C@H]1C(=O)N1CCC[C@H]1C(=O)N1CCC[C@H]1C(=O)N[C@@H](Cc1ccc(O)cc1)C(=O)N[C@H](C(=O)N[C@@H](CCC(=O)O)C(=O)N1CCC[C@H]1C(=O)N[C@H](C(=O)N[C@@H](C)C(=O)N1CCC[C@H]1C(=O)N[C@@H](CCC(N)=O)C(=O)N[C@H](C(=O)N[C@@H](CC(C)C)C(=O)O)C(C)C)[C@@H](C)O)C(C)C [Example 1] (H-KKPPPPSSPTHDPPDSDPQIPPPYVEPTAPQVL-OH) | – | – | – | – | – | – | – | 0.085 | 0.068 | 2.651 and 2.670 and 2.596 and 2.850 and 2.586 and 2.755 and 2.833 and 2.733 and 2.779 and 2.783 | 2.802 and 2.719 and 2.899 and 2.786 and 2.542 and 2.622 and 2.531 and 2.193 and 2.656 and 2.317 | positive | negative | 1.420 | 0.871 | 0.761 and 1.051 and 0.845 and 0.260 and 0.796 and 0.847 and 1.311 and 0.832 and 1.112 and 0.891 | 1 ng/well | more than 0.2 ng/well | negative | determination of anti-ATLA antibody using the cutoff value (anti-ATLA antibody [3]; all ATLV-carrier serums, cups used immediately, stored at 4° C. with blocking solution, or dried and stored at 4° C.): positive; determination of anti-ATLA antibody using the cutoff value (anti-ATLA antibody [3]; all ATLV-false-positive serums, three kinds of assay cups): negative; determination of anti-ATLA antibody using the cutoff value (anti-ATLA antibody [3]; all normal human serums, three kinds of assay cups): negative; OD492 (anti-ATLA antibody [5]; ATLV-carrier serum, individual specimens No. 1-15, diluent:specimen 20:1): 2.926 and 1.732 and 2.957 and 0.576 and 2.853 and 2.688 and 2.156 and 2.535 and 1.036 and 0.182 and 0.703 and 0.861 and 2.796 and 2.274 and 2.015; Cutoff value (anti-ATLA antibody [5]; mean OD492 of the normal human serum + 2SD): 0.180; Mean OD492 (anti-ATLA antibody [5]; mean of the fifteen normal human serums): 0.109; OD492 (anti-ATLA antibody [5]; normal human serum, individual specimens No. 1-15): 0.035 and 0.174 and 0.151 and 0.093 and 0.089 and 0.114 and 0.133 and 0.104 and 0.111 and 0.070 and 0.125 and 0.145 and 0.078 and 0.088 and 0.127; OD492 (anti-ATLA antibody [2]; ATLV-carrier serum, individual specimens No. 1-22, diluent:specimen 20:1, listed as Ex. 1): 1.674 and 1.328 and 0.217 and 0.371 and 0.176 and 0.170 and 1.329 and 1.314 and 0.207 and 0.143 and 2.406 and 0.747 and 2.767 and 0.111 and 2.287 and 0.480 and 1.484 and 0.258 and 2.779 and 1.231 and 0.292 and 1.818; OD492 (anti-ATLA antibody [2]; normal human serum, individual specimens No. 1-2, listed as Ex. 1): 0.074 and 0.062; rise of sensitivity of the ELISA by adding peptide fragment X (anti-ATLA antibody [6]; versus the peptide without X (Reference Example 1)): more than tenfold |
| CC[C@H](C)[C@H](NC(=O)[C@H](CCC(N)=O)NC(=O)[C@@H]1CCCN1C(=O)[C@H](CC(=O)O)NC(=O)[C@H](CO)NC(=O)[C@H](CC(=O)O)NC(=O)[C@@H]1CCCN1C(=O)[C@@H]1CCCN1C(=O)[C@H](CC(=O)O)NC(=O)[C@H](Cc1c[nH]cn1)NC(=O)[C@@H](NC(=O)[C@@H]1CCCN1C(=O)[C@H](CO)NC(=O)[C@H](CO)NC(=O)[C@@H]1CCCN1C(=O)[C@@H]1CCCN1C(=O)[C@@H]1CCCN1C(=O)[C@@H]1CCCN1)[C@@H](C)O)C(=O)N1CCC[C@H]1C(=O)N1CCC[C@H]1C(=O)N1CCC[C@H]1C(=O)N[C@@H](Cc1ccc(O)cc1)C(=O)N[C@H](C(=O)N[C@@H](CCC(=O)O)C(=O)N1CCC[C@H]1C(=O)N[C@H](C(=O)N[C@@H](C)C(=O)N1CCC[C@H]1C(=O)N[C@@H](CCC(N)=O)C(=O)N[C@H](C(=O)N[C@@H](CC(C)C)C(=O)O)C(C)C)[C@@H](C)O)C(C)C [Reference Example 1, reference compound] (H-PPPPSSPTHDPPDSDPQIPPPYVEPTAPQVL-OH) | – | – | – | – | – | – | – | – | – | 2.230 and 2.441 and 2.558 and 2.653 and 2.589 and 2.587 and 2.304 and 2.739 and 2.740 and 2.722 | 2.748 and 2.844 and 2.618 and 2.594 and 2.161 and 2.591 and 2.324 and 2.558 and 2.628 and 1.594 | positive | negative | 1.612 | 0.903 | 0.953 and 1.026 and 0.642 and 0.248 and 0.854 and 0.568 and 1.111 and 1.018 and 1.552 and 1.057 | more than 10 ng/well | more than 1 ng/well | negative | – |
